Publication PMC7324386

Experiments:
[1] = target: CDC48B (yeast two-hybrid fusion) (Arabidopsis thaliana); assay: two-hybrid; GAL4 system (pGBKT7, pGADT7), Y187 and Y2HGold mated, diploid yeasts on QDO medium (SD-Leu/-Trp/-His/-Ade), 30 °C, 3 days
[2] = target: CDC48C (yeast two-hybrid fusion) (Arabidopsis thaliana); assay: as above

Binder | binding [1] | binding [2]
PUX4 (yeast two-hybrid fusion) (protein, UniProt Q8RWU7 1-303) MSSKDKKPSKPSSSRGGIRTLSDLNRRSGPDSDSDSDGPQEYYTGGEKSGMLVQDPSKKDDVDEIFNQARQLGAVEGPLEPPPSSRSFTGTGRLLSGENVPTGNQQPEPVVHNIVFWSNGFTIDDGPLRKLDDPENASFLESIRKSECPKELEPADRRAPVHVNLMRKEEKCPERQKRRVSFQGVGRTLGGSNEGSGSSSPVAPDSAPIPIQTEPAPSQSLVIDETVPTTSIQLRLADGTRLVAKFNHHHTVNDIRGFIDSSRPGASLNYQLQTMGFPPKPLTDLTQTIEEAGLANSVVLQKF | binds | binds
PUX5 (yeast two-hybrid fusion) (protein, UniProt Q7Y175 1-421) MATETNENLINSFIEITSSSREEANFFLESHTWNLDAAVSTFLDNDAAAAAEPNPTGPPPPSSTIAGAQSPSQSHSPDYTPSETSPSPSRSRSASPSSRAAPYGLRSRGGAGENKETENPSGIRSSRSRQHAGNIRTFADLNRSPADGEGSDSDEANEYYTGGQKSGMMVQDPKKVKDVDELFDQARQSAVDRPVEPSRSASTSFTGAARLLSGEAVSSSPQQQQQEQPQRIMHTITFWLNGFTVNDGPLRGFSDPENAAFMNSISRSECPSELEPADKKIPVHVDLVRRGENFTEPPKPKNPFQGVGRTLGASGSGSSSAPQASSAPMNVAPAPSRGLVVDPAAPTTSIQLRLADGTRLVSRFNNHHTVRDVRGFIDASRPGGSKEYQLLTMGFPPKQLTELDQTIEQAGIANAVVIQKF | binds | binds
UFD1B (yeast two-hybrid fusion) (protein, UniProt Q9SJV0 1-340) MVLRFCCHLLTYSVSLLPPITMFFDGYHYHGTTFEQSYRCYPASFIDKPQLESGDKIIMPPSALDRLASLHIDYPMLFELRNAGIERVTHCGVLEFIAEEGMIYMPYWMMQNLLLQEGDIVRVRNVTLPKGTYVKLQPHTTDFLDISNPKAILETALRNYSCLTSGDSIMVPYNNKKYFIDIVETKPANAISIIETDCEVDFAPPLDYKEPERPTAPSAAKGPAKAEEVVDEPEPKFNPFTGSGRRLDGRPLAYEPAPASSSKGKQPVVANGNGQSSVASSSEKATRAQGKLVFGANGNRAPKEAAPKVGAAKETKKEEQEKKDEPKFQAFSGKKYSLRG | binds | binds weakly
UFD1C (yeast two-hybrid fusion) (protein, UniProt Q8W570 1-311) MFYDGYAYHGTTFEQTYRCYPSSFIDKPQIESGDKIIMPPSALDRLASLQIDYPMLFELRNASTDSFSHCGVLEFIAEEGVIYIPYWMMQNLLLQEGDMVRVRNVTLPKGTYVKLQPHTTDFLDIANPKAILETALRNYSCLTVGDSIMVPYNNKKYFIDIVEAKPSNGISIIETDCEVDFAPPLDYKEPERPVAPAPAKAKEVDVAEAEPKFNPFTGSGRRLDGRPLSYEPQPGAANSNGQSHPVASSSSSGSEKATQQNRGKLVFGSNVERSTKETTKVGAGKDRKQEEEAEKEAKFQAFSGKKYSLRG | binds | binds

These are yes or no findings as the source states them, for the method shown. A result given as binding can be weak or reduced; the word gives no strength. Where a sequence is shown, tags or fusion partners need not be part of it.
